Patent publication US20210024639A1 (AGOMAB THERAPEUTICS, published 2021)
Positions count from the first letter of the chain named. These are yes or no findings as the source states them, for the method shown. Some entries that bind do so weakly or less than the wild type.

Chains of the proteins cited; added tags and fusions are not shown. Lines headed by an entry give the natural chain unless they say otherwise; changes in a name come on top. Residues count along the entry.
UniProt P08581: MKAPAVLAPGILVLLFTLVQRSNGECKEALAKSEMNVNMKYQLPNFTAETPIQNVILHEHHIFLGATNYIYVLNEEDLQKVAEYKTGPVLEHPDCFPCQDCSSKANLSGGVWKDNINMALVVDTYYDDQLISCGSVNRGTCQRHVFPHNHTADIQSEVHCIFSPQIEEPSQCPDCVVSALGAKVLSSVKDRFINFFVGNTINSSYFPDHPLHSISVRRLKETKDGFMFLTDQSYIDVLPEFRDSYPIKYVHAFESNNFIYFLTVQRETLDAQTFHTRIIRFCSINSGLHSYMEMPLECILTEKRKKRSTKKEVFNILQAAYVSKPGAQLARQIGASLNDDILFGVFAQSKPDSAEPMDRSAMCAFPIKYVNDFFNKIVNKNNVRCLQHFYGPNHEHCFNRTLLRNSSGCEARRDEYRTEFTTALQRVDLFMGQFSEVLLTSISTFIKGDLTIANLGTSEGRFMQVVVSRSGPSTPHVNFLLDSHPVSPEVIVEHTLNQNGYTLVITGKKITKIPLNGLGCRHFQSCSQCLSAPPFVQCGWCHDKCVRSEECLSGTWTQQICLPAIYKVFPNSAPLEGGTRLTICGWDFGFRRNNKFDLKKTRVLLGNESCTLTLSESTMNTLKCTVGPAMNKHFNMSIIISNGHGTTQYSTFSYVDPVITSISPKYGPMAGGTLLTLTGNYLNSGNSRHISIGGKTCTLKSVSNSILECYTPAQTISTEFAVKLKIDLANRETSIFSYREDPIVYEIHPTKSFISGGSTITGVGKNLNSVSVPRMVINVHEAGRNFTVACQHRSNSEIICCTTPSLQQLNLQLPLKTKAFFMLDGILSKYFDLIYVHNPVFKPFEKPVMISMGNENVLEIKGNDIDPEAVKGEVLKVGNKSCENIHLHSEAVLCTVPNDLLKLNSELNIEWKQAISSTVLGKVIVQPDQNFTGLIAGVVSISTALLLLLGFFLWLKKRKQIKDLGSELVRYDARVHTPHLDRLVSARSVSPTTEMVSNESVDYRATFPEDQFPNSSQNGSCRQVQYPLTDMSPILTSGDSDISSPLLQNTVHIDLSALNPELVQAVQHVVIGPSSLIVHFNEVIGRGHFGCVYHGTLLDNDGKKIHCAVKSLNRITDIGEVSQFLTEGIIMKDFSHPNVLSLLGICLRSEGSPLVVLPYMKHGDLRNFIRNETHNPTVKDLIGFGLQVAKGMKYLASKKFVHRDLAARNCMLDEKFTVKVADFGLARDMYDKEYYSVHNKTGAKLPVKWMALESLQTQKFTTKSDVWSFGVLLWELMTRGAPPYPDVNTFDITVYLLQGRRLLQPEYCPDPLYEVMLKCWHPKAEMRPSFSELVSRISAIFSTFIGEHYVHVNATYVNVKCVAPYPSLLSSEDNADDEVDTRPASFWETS
SEMA-PSI-IPT 1-2 (human MET ECD lacking IPT domains 3 and 4): residues 25-741 of P08581
SEMA-PSI (human MET ECD lacking IPT domains 1-4): residues 25-562 of P08581
isolated SEMA domain of human MET: residues 27-515 of P08581

B1: chimeric llama-human IgG1 mAb 71G3 (antibody, V domains shown)
VH: QVQLVESGGGLVQPGGSLRVSCAASGFTFSTYYMSWVRQAPGKGLEWVSDIRTDGGTYYADSVKGRFTMSRDNAKNTLYLQMNSLKPEDTALYYCARTRIFPSGYDYWGQGTQVTVSS
VL: QAVVTQEPSLSVSPGGTVTLTCGLSSGSVTTSNYPGWFQQTPGQAPRTLIYNTNSRHSGVPSRFSGSISGNKAALTIMGAQPEDEADYYCSLYPGSTTVFGGGTHLTVL
B2: chimeric llama-human IgG1 mAb 72F8 (antibody, V domains shown)
VH: ELQLVESGGGLVQPGGSLRLSCAASGFTFSNYVMSWVRQAPGKGLEWVSDTNSGGSTSYADSVKGRFTISRDNAKNTLYLQMNSLKPEDTALYYCARSFFYGMNYWGKGTQVTVSS
VL: QSALTQPPSLSASPGSSVRLTCTLSSGNNIGSYDISWYQQKAGSPPRYLLNYYTDSRKHQDSGVPSRFSGSKDASANAGLLLISGLQPEDEADYYCSAYKSGSYRWVFGGGTHVTVL
B3: chimeric llama-human IgG1 mAb 71A3 (antibody, V domains shown)
VH: EVQLVESGGGLVQPGGSLRLSCAASGFSFKDYDITWVRQAPGKGLEWVSTITSRSGSTSYVDSVKGRFTISGDNAKNTLYLQMNSLKPEDTAVYYCAKVYATTWDVGPLGYGMDYWGKGTLVTVSS
VL: SYELTQPSALSVTLGQTAKITCQGGSLGSSYAHWYQQKPGQAPVLVIYDDDSRPSGIPERFSGSSSGGTATLTISGAQAEDEGDYYCQSADSSGNAAVFGGGTHLTVL
B4: chimeric llama-human IgG1 mAb 71D6 (antibody, V domains shown)
VH: ELQLVESGGGLVQPGGSLRLSCAASGFTFSSYGMSWVRQAPGKGLEWVSAINSYGGSTSYADSVKGRFTISRDNAKNTLYLQMNSLKPEDTAVYYCAKEVRADLSRYNDYESYDYWGQGTQVTVSS
VL: QPVLNQPSALSVTLGQTAKITCQGGSLGARYAHWYQQKPGQAPVLVIYDDDSRPSGIPERFSGSSSGGTATLTISGAQAEDEGDYYCQSADSSGSVFGGGTHLTVL
B5: chimeric llama-human IgG1 mAb 71C3 (antibody, V domains shown)
VH: B4 VH with E1Q, Y32H, G33A, Y54G, V100L, A102F, S105A, N108T, S112A, Y113W
VL: B3 VL
B6: chimeric llama-human IgG1 mAb 71D4 (antibody, V domains shown)
VH: B4 VH with S31G, A50D, Y54G, E99D, V100M, A102L, D103Y, S105A, S112A, Y113W
VL: B3 VL with Y2S, E3A
B7: chimeric llama-human IgG1 mAb 71G2 (antibody, V domains shown)
VH: EVQLQESGGGLVQPGGSLRLSCAASGFTFSIYDMSWVRQAPGKGLEWVSTINSDGSSTSYVDSVKGRFTISRDNAKNTLYLQMNSLKPEDTAVYYCAKVYGSTWDVGPMGYGMDYWGKGTLVTVSS
VL: SSALTQPSALSVSLGQTARITCQGGSLGSSYAHWYQQKPGQAPVLVIYGDDSRPSGIPERFSGSSSGGTATLTISGAQAEDEDDYYCQSTDSSGNTVFGGGTRLTVL
B8: chimeric llama-human IgG1 mAb 76H10 (antibody, V domains shown)
VH: QLQLVESGGGLVQPGGSLRVSCTASGFTFNTYYMTWVRQAPGKGLEWVSDINSGGGTYYADSVKGRFTISRDNAKNTLYLQMNSLKPEDTALYYCVRVRIWPVGYDYWGQGTQVTVSS
VL: QAVVTQEPSLSVSPGGTVTLTCGLSSGSVTTSNYPGWFQQTPGQAPRTLIYNTNNRHSGVPSRFSGSISGNKAALTITGAQPEDEADYYCSLYTGSYTTVFGGGTHLTVL
B9: chimeric llama-human IgG1 mAb 74C8 (antibody, V domains shown)
VH: EVQLVESGGGLVQPGGSLRLSCAASGFTFRNYHMSWVRQVPGKGFEWISDINSAGGSTYYADSVKGRFTISRDNAKNTLYLEMNSLKPEDTALYYCARVNVWGVNYWGKGTLVSVSS
VL: B8 VL with A2T, N55S, T94P, T99N
B10: chimeric llama-human IgG1 mAb 76G7 (antibody, V domains shown)
VH: QVQLVESGGNLVQPGGSLRLSCAASGFTFSNYYMSWVRQAPGKGLEWVSDIYSDGSTTWYSDSVKGRFTISRDNAKNTLSLQMNSLKSEDTAVYYCARVKIYPGGYDAWGQGTQVTVSS
VL: QAGLTQPPSVSGSPGKTVTISCAGNSSDVGYGNYVSWYQQFPGMAPKLLIYLVNKRASGITDRFSGSKSGNTASLTISGLQSEDEADYYCASYTGSNNIVFGGGTHLTVL
B11: chimeric llama-human IgG1 mAb 71G12 (antibody, V domains shown)
VH: QVQLQESGGDLVQPGGSLRVSCVVSGFTFSRYYMSWVRQAPGKGLEWVSSIDSYGYSTYYTDSVKGRFTISRDNAKNTLYLQMNSLKPEDTALYYCARAKTTWSYDYWGQGTQVTVSS
VL: EIVLTQSPSSVTASVGGKVTINCKSSQSVFIASNQKTYLNWYQQRPGQSPRLVISYASTRESGIPDRFSGSGSTTDFTLTISSVQPEDAAVYYCQQAYSHPTFGQGTKVELK

These binders were tested against SEMA-PSI (human MET ECD lacking IPT domains 1-4) (human) (UniProt P08581) (assay: ELISA, MET deletion mutant in solid phase, mAb 0-50 nM).

binding	Binder
binds	B1
binds	B2
binds	B3
binds	B4
binds	B5
binds	B6
binds	B7
binds	B8
binds	B9
binds	B10
binds	B11

Each binder was assayed against SEMA-PSI-IPT 1-2 (human MET ECD lacking IPT domains 3 and 4) (human) (UniProt P08581) in the same assay as above.

binding	Binder
binds	B1
binds	B2
binds	B3
binds	B4
binds	B5
binds	B6
binds	B7
binds	B8
binds	B9
binds	B10
binds	B11

These binders were tested against isolated SEMA domain of human MET (human) (UniProt P08581) in the same assay as above.

binding	Binder
binds	B2
binds	B3
binds	B4
binds	B5
binds	B6
binds	B7
binds	B9
